Source: publication PMC12699829, “Development of a glutamine-responsive MRI contrast agent” (Chemical Science, 2025)

Assay: Isothermal titration calorimetry (ITC) of Gln binding to GlnBP variants and swArMs
Conditions: PBS buffer pH 7.4, 37 °C

| Molecule | n (ITC binding stoichiometry) | ΔH of Gln dissociation [kcal/mol] | ΔS of Gln dissociation [J/mol⋅K] |
| --- | --- | --- | --- |
| [Dy(DOTA-malN)]72-A126D: swArM: Dy(DOTA-mal^N) on T72C/A126D double variant of GlnBP (conjugate, UniProt P0AEQ3 23-248, looked up, variant T72C A126D, Dy(DOTA-malN) at Cys72, swArM: Dy(DOTA-mal^N) on T72C/A126D double variant of GlnBP) Glutamine-binding periplasmic …: ADKKLVVATDTAFVPFEFKQGDKYVGFDVDLWAAIAKELKLDYELKPMDFSGIIPALQTKNVDLALAGITICDERKKAIDFSDGYYKSGLLVMVKANNNDVKSVKDLDGKVVAVKSGTGSVDYAKDNIKTKDLRQFPNIDNAYMELGTNRADAVLHDTPNILYFIKTAGNGQFKAVGDSLEAQQYGIAFPKGSDELRDKVNGALKTLRENGTYNEIYKKWFGTEPK | 0.97 | – | – |
| T72C-A126Y: T72C/A126Y double variant of GlnBP, unconjugated (protein, UniProt P0AEQ3 23-248, looked up, variant T72C A126Y) Glutamine-binding periplasmic …: ADKKLVVATDTAFVPFEFKQGDKYVGFDVDLWAAIAKELKLDYELKPMDFSGIIPALQTKNVDLALAGITICDERKKAIDFSDGYYKSGLLVMVKANNNDVKSVKDLDGKVVAVKSGTGSVDYAKYNIKTKDLRQFPNIDNAYMELGTNRADAVLHDTPNILYFIKTAGNGQFKAVGDSLEAQQYGIAFPKGSDELRDKVNGALKTLRENGTYNEIYKKWFGTEPK | 1.0 | -12.2 | -47 |
| [Dy(DOTA-mal^N)]72-A126Y: swArM: Dy(DOTA-mal^N) on T72C/A126Y double variant of GlnBP (conjugate, UniProt P0AEQ3 23-248, looked up, variant T72C A126Y, Dy(DOTA-malN) at Cys72, swArM: Dy(DOTA-mal^N) on T72C/A126Y double variant of GlnBP) Glutamine-binding periplasmic …: ADKKLVVATDTAFVPFEFKQGDKYVGFDVDLWAAIAKELKLDYELKPMDFSGIIPALQTKNVDLALAGITICDERKKAIDFSDGYYKSGLLVMVKANNNDVKSVKDLDGKVVAVKSGTGSVDYAKYNIKTKDLRQFPNIDNAYMELGTNRADAVLHDTPNILYFIKTAGNGQFKAVGDSLEAQQYGIAFPKGSDELRDKVNGALKTLRENGTYNEIYKKWFGTEPK | 0.89 | -12.4 | -63 |
| [Dy(DOTA-mal^N)]72-N127Y: swArM: Dy(DOTA-mal^N) on T72C/N127Y double variant of GlnBP (conjugate, UniProt P0AEQ3 23-248, looked up, variant T72C N127Y, Dy(DOTA-malN) at Cys72, swArM: Dy(DOTA-mal^N) on T72C/N127Y double variant of GlnBP) Glutamine-binding periplasmic …: ADKKLVVATDTAFVPFEFKQGDKYVGFDVDLWAAIAKELKLDYELKPMDFSGIIPALQTKNVDLALAGITICDERKKAIDFSDGYYKSGLLVMVKANNNDVKSVKDLDGKVVAVKSGTGSVDYAKAYIKTKDLRQFPNIDNAYMELGTNRADAVLHDTPNILYFIKTAGNGQFKAVGDSLEAQQYGIAFPKGSDELRDKVNGALKTLRENGTYNEIYKKWFGTEPK | 0.99 | – | – |
| T72C-Q183Y: T72C/Q183Y double variant of GlnBP, unconjugated (protein, UniProt P0AEQ3 23-248, looked up, variant T72C Q183Y) Glutamine-binding periplasmic …: ADKKLVVATDTAFVPFEFKQGDKYVGFDVDLWAAIAKELKLDYELKPMDFSGIIPALQTKNVDLALAGITICDERKKAIDFSDGYYKSGLLVMVKANNNDVKSVKDLDGKVVAVKSGTGSVDYAKANIKTKDLRQFPNIDNAYMELGTNRADAVLHDTPNILYFIKTAGNGQFKAVGDSLEAYQYGIAFPKGSDELRDKVNGALKTLRENGTYNEIYKKWFGTEPK | 0.85 | – | – |
| [Dy(DOTA-malN)]72-Q183Y: swArM: Dy(DOTA-mal^N) on T72C/Q183Y double variant of GlnBP (conjugate, UniProt P0AEQ3 23-248, looked up, variant T72C Q183Y, Dy(DOTA-malN) at Cys72, swArM: Dy(DOTA-mal^N) on T72C/Q183Y double variant of GlnBP) Glutamine-binding periplasmic …: ADKKLVVATDTAFVPFEFKQGDKYVGFDVDLWAAIAKELKLDYELKPMDFSGIIPALQTKNVDLALAGITICDERKKAIDFSDGYYKSGLLVMVKANNNDVKSVKDLDGKVVAVKSGTGSVDYAKANIKTKDLRQFPNIDNAYMELGTNRADAVLHDTPNILYFIKTAGNGQFKAVGDSLEAYQYGIAFPKGSDELRDKVNGALKTLRENGTYNEIYKKWFGTEPK | 0.89 | – | – |
| T72C: single-Cys T72C variant of E. coli glutamine-binding protein, unconjugated (protein, UniProt P0AEQ3 23-248, looked up, variant T72C) Glutamine-binding periplasmic …: ADKKLVVATDTAFVPFEFKQGDKYVGFDVDLWAAIAKELKLDYELKPMDFSGIIPALQTKNVDLALAGITICDERKKAIDFSDGYYKSGLLVMVKANNNDVKSVKDLDGKVVAVKSGTGSVDYAKANIKTKDLRQFPNIDNAYMELGTNRADAVLHDTPNILYFIKTAGNGQFKAVGDSLEAQQYGIAFPKGSDELRDKVNGALKTLRENGTYNEIYKKWFGTEPK | 0.93 ± 0.01 | – | – |
| [Gd(DOTA-mal^N)]72: swArM: Gd(DOTA-mal^N) metallocofactor covalently attached at Cys72 of T72C E. coli glutamine-binding protein (GlnBP) (conjugate, UniProt P0AEQ3 23-248, looked up, variant T72C, Gd(DOTA-malN) at Cys72) Glutamine-binding periplasmic …: ADKKLVVATDTAFVPFEFKQGDKYVGFDVDLWAAIAKELKLDYELKPMDFSGIIPALQTKNVDLALAGITICDERKKAIDFSDGYYKSGLLVMVKANNNDVKSVKDLDGKVVAVKSGTGSVDYAKANIKTKDLRQFPNIDNAYMELGTNRADAVLHDTPNILYFIKTAGNGQFKAVGDSLEAQQYGIAFPKGSDELRDKVNGALKTLRENGTYNEIYKKWFGTEPK | 0.9 ± 0.1 | – | – |
| [Gd(DTPA-malN)]72: swArM: Gd complex of maleimide-functionalized DTPA attached at Cys72 of T72C-GlnBP (conjugate, UniProt P0AEQ3 23-248, looked up, variant T72C, Gd(DTPA-mal) at Cys72, swArM: Gd complex of maleimide-functionalized DTPA attached at Cys72 of T72C-GlnBP) Glutamine-binding periplasmic …: ADKKLVVATDTAFVPFEFKQGDKYVGFDVDLWAAIAKELKLDYELKPMDFSGIIPALQTKNVDLALAGITICDERKKAIDFSDGYYKSGLLVMVKANNNDVKSVKDLDGKVVAVKSGTGSVDYAKANIKTKDLRQFPNIDNAYMELGTNRADAVLHDTPNILYFIKTAGNGQFKAVGDSLEAQQYGIAFPKGSDELRDKVNGALKTLRENGTYNEIYKKWFGTEPK | 1.0 | – | – |
| T72C-G119R: T72C/G119R double variant of GlnBP, unconjugated (protein, UniProt P0AEQ3 23-248, looked up, variant T72C G119R) Glutamine-binding periplasmic …: ADKKLVVATDTAFVPFEFKQGDKYVGFDVDLWAAIAKELKLDYELKPMDFSGIIPALQTKNVDLALAGITICDERKKAIDFSDGYYKSGLLVMVKANNNDVKSVKDLDGKVVAVKSGTRSVDYAKANIKTKDLRQFPNIDNAYMELGTNRADAVLHDTPNILYFIKTAGNGQFKAVGDSLEAQQYGIAFPKGSDELRDKVNGALKTLRENGTYNEIYKKWFGTEPK | 1.0 | – | – |
| [Dy(DOTA-malN)]72-G119R: swArM: Dy(DOTA-mal^N) on T72C/G119R double variant of GlnBP as printed in Table S1 (conjugate, UniProt P0AEQ3 23-248, looked up, variant T72C G119R, Dy(DOTA-malN) at Cys72) Glutamine-binding periplasmic …: ADKKLVVATDTAFVPFEFKQGDKYVGFDVDLWAAIAKELKLDYELKPMDFSGIIPALQTKNVDLALAGITICDERKKAIDFSDGYYKSGLLVMVKANNNDVKSVKDLDGKVVAVKSGTRSVDYAKANIKTKDLRQFPNIDNAYMELGTNRADAVLHDTPNILYFIKTAGNGQFKAVGDSLEAQQYGIAFPKGSDELRDKVNGALKTLRENGTYNEIYKKWFGTEPK | 0.73 | – | 79 |
| T72C-A126D: T72C/A126D double variant of GlnBP, unconjugated (protein, UniProt P0AEQ3 23-248, looked up, variant T72C A126D) Glutamine-binding periplasmic …: ADKKLVVATDTAFVPFEFKQGDKYVGFDVDLWAAIAKELKLDYELKPMDFSGIIPALQTKNVDLALAGITICDERKKAIDFSDGYYKSGLLVMVKANNNDVKSVKDLDGKVVAVKSGTGSVDYAKDNIKTKDLRQFPNIDNAYMELGTNRADAVLHDTPNILYFIKTAGNGQFKAVGDSLEAQQYGIAFPKGSDELRDKVNGALKTLRENGTYNEIYKKWFGTEPK | 1.1 | – | – |
